Measurements as given in article PMC11817884.
No constants are given. Whether binding was seen depends on the method and setting. Binding seen in cells or lysates may run through a third protein. Some binding calls cover weakened binding; strength is not graded here.

Biological target: T1, Heme oxygenase 1 (mouse (endogenous in Townes SS mouse liver)) (UniProt P14901)
T1 sequence: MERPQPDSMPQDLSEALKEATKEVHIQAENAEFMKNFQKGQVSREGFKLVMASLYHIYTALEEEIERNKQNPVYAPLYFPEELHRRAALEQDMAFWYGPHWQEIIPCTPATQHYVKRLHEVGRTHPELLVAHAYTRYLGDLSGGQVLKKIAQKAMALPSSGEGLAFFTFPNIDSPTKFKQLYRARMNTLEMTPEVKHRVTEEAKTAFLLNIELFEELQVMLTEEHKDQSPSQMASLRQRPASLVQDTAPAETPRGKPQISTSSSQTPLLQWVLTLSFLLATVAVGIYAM
Assay: co-IP; anti-HO-1 cross-linked (DSS) to Protein A/G Plus agarose (Pierce Crosslink IP kit); precleared SS mouse liver lysate, overnight at 4 °C; eluate analysed by immunoblotting; normal mouse IgG as control; livers at baseline and after oxy-Hb treatment of the mice

B1: Cytochrome P450 3a11 (enzyme, UniProt Q64459 1-504)
chain: MDLVSALSLETWVLLAISLVLLYRYGTRKHELFKKQGIPGPKPLPFLGTVLNYYKGLWKFDMECYKKYGKTWGLFDGQTPLLAVTDPETIKNVLVKECFSVFTNRRDFGPVGIMSKAISISKDDEWKRYRALLSPTFTSGKLKEMFPVIEQYGDILVKYLRQKAKKGKPVTMKDVLGAYSMDVITSTSFGVNVDSLNNPEDPFVEKAKKLLRFDFFDPLLFSVVLFPFLTPVYEMLNICMFPKDSIEFFKKFVDRMKESRLDSKQKHRVDFLQLMMNSHNNSKDKVSHKALSDMEITAQSIIFIFAGYETTSSTLSFTLHSLATHPDIQKKLQDEIDEALPNKAPPTYDTVMEMEYLDMVLNETLRLYPIANRLERVCKKDVELNGVYIPKGSTVMIPSYALHHDPQHWSEPEEFQPERFSKENKGSIDPYVYLPFGNGPRNCLGMRFALMNMKLALTKIMQNFSFQPCKETQIPLKLSRQGLLQPEKPIVLKVVPRDAVITGA
- binding: binds
